# Measured values taken from the supplement of paper PMC8728848.
# The list shows a part of the results.
# B1: CALR truncated at D342 (Homo sapiens) (protein)
# chain: EPAVYFKEQFLDGDGWTSRWIESKHKSDFGKFVLSSGKFYGDEEKDKGLQTSQDARFYALSASFEPFSNKGQTLVVQFTVKHEQNIDCGGGYVKLFPNSLDQTDMHGDSEYNIMFGPDICGPGTKKVHVIFNYKGKNVLINKDIRCKDDEFTHLYTLIVRPDNTYEVKIDNSQVESGSLEDDWDFLPPKKIKDPDASKPEDWDERAKIDDPTDSKPEDWDKPEHIPDPDAKKPEDWDEEMDGEWEPPVIQNPEYKGEWKPRQIDNPDYKGTWIHPEIDNPEYSPDPSIYAYDNFGVLGLDLWQVKSGTIFDNFLITNDEAYAEEFGNETWGVTKAAEKQMKD
# Tests used:
# Experiment in all cases: glycan array binding signal (z-score within array); higher = stronger binding
# Conditions in all cases: glycan notation: IUPAC condensed, linker removed
# [1] = molecular target: Kdn(a2-3)Gal(b1-4)GlcNAc
# Summary of the method: (§1)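 Columns mapping to the same glycan were averaged after glycan names were converted to IUPAC-condensed notation. The data come from 3228 arrays in the Consortium for Functional Glycomics database, limited to those with an available protein sequence. Binding is reported as a within-array Z-score averaged across arrays of one protein sequence and across linkers.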
# [2] = molecular target: Kdn(a2-3)Gal(b1-4)[Fuc(a1-3)]GlcNAc
# Summary of the method: as §1
# [3] = molecular target: Kdn(a2-6)Gal(b1-4)GlcNAc
# Summary of the method: as §1
# [4] = molecular target: Man(a1-2)Man(a1-2)Man(a1-3)Man
# Summary of the method: as §1
# [5] = molecular target: Man(a1-2)Man(a1-2)Man(a1-6)[Man(a1-3)]Man
# Summary of the method: as §1
# [6] = molecular target: Man(a1-2)Man(a1-3)Man
# Summary of the method: as §1
# [7] = molecular target: Man(a1-2)Man(a1-3)[Man(a1-2)Man(a1-6)]Man
# Summary of the method: as §1
# [8] = molecular target: Man(a1-2)Man(a1-3)[Man(a1-2)Man(a1-6)]Man(a1-6)[Man(a1-2)Man(a1-2)Man(a1-3)]Man
# Summary of the method: as §1
# [9] = molecular target: Man(a1-2)Man(a1-3)[Man(a1-2)Man(a1-6)]Man(a1-6)[Man(a1-2)Man(a1-2)Man(a1-3)]Man(b1-4)GlcNAc(b1-4)GlcNAc
# Summary of the method: as §1
# [10] = molecular target: Man(a1-2)Man(a1-3)[Man(a1-6)]Man(a1-6)[Man(a1-2)Man(a1-3)]Man(b1-4)GlcNAc(b1-4)GlcNAc
# Summary of the method: as §1
# [11] = molecular target: Man(a1-2)Man(a1-6)[Man(a1-3)]Man(a1-6)[Man(a1-2)Man(a1-2)Man(a1-3)]Man
# Summary of the method: as §1
# [12] = molecular target: Man(a1-2)Man(a1-6)[Man(a1-3)]Man(a1-6)[Man(a1-2)Man(a1-2)Man(a1-3)]Man(b1-4)GlcNAc(b1-4)GlcNAc
# Summary of the method: as §1
# [13] = molecular target: Man(a1-3)[Man(a1-6)]Man
# Summary of the method: as §1
# [14] = molecular target: Man(a1-3)[Man(a1-6)]Man(a1-6)[Man(a1-2)Man(a1-3)]Man(b1-4)GlcNAc(b1-4)GlcNAc
# Summary of the method: as §1
# [15] = molecular target: Man(a1-3)[Man(a1-6)]Man(a1-6)[Man(a1-3)]Man
# Summary of the method: as §1
# [16] = molecular target: Man(a1-3)[Man(a1-6)]Man(a1-6)[Man(a1-3)]Man(b1-4)GlcNAc(b1-4)GlcNAc
# Summary of the method: as §1
# [17] = molecular target: Man(a1-3)[Man(a1-6)]Man(b1-4)GlcNAc(b1-4)GlcNAc
# Summary of the method: as §1
# [18] = molecular target: Man(a1-3)[Man(a1-6)]Man(b1-4)GlcNAc(b1-4)[Fuc(a1-6)]GlcNAc
# Summary of the method: as §1
# [19] = molecular target: Man(a1-6)Man
# Summary of the method: as §1
# [20] = molecular target: Man(b1-4)GlcNAc
# Summary of the method: as §1
# [21] = molecular target: Neu5Ac(a2-3)Gal
# Summary of the method: as §1
# [22] = molecular target: Neu5Ac(a2-3)Gal(b1-3)GalNAc
# Summary of the method: as §1
# [23] = molecular target: Neu5Ac(a2-3)Gal(b1-3)GalNAc(b1-3)Gal(a1-4)Gal(b1-4)Glc
# Summary of the method: as §1
# [24] = molecular target: Neu5Ac(a2-3)Gal(b1-3)GalNAc(b1-4)[Neu5Ac(a2-3)]Gal(b1-4)Glc
# Summary of the method: as §1
# [25] = molecular target: Neu5Ac(a2-3)Gal(b1-3)GalNAc(b1-4)[Neu5Ac(a2-8)Neu5Ac(a2-3)]Gal(b1-4)Glc
# Summary of the method: as §1
# [26] = molecular target: Neu5Ac(a2-3)Gal(b1-3)GalNAc6S
# Summary of the method: as §1
# [27] = molecular target: Neu5Ac(a2-3)Gal(b1-3)GlcNAc
# Summary of the method: as §1
# [28] = molecular target: Neu5Ac(a2-3)Gal(b1-3)GlcNAc(b1-2)Man(a1-3)[GlcNAc(b1-4)][Neu5Ac(a2-3)Gal(b1-3)GlcNAc(b1-2)Man(a1-6)]Man(b1-4)GlcNAc(b1-4)GlcNAc
# Summary of the method: as §1
# [29] = molecular target: Neu5Ac(a2-3)Gal(b1-3)GlcNAc(b1-3)Gal(b1-3)GlcNAc
# Summary of the method: as §1
# [30] = molecular target: Neu5Ac(a2-3)Gal(b1-3)GlcNAc(b1-3)Gal(b1-4)GlcNAc
# Summary of the method: as §1
# [31] = molecular target: Neu5Ac(a2-3)Gal(b1-3)GlcNAc(b1-3)GalNAc
# Summary of the method: as §1
# [32] = molecular target: Neu5Ac(a2-3)Gal(b1-3)GlcNAc(b1-6)GalNAc
# Summary of the method: as §1
# [33] = molecular target: Neu5Ac(a2-3)Gal(b1-3)GlcNAc6S
# Summary of the method: as §1
# [34] = molecular target: Neu5Ac(a2-3)Gal(b1-3)[Fuc(a1-4)]GlcNAc
# Summary of the method: as §1
# [35] = molecular target: Neu5Ac(a2-3)Gal(b1-3)[Fuc(a1-4)]GlcNAc(b1-3)Gal(b1-3)[Fuc(a1-4)]GlcNAc
# Summary of the method: as §1
# [36] = molecular target: Neu5Ac(a2-3)Gal(b1-3)[Fuc(a1-4)]GlcNAc(b1-3)Gal(b1-4)[Fuc(a1-3)]GlcNAc
# Summary of the method: as §1
# [37] = molecular target: Neu5Ac(a2-3)Gal(b1-3)[Neu5Ac(a2-3)Gal(b1-4)]GlcNAc
# Summary of the method: as §1
# [38] = molecular target: Neu5Ac(a2-3)Gal(b1-3)[Neu5Ac(a2-6)]GalNAc
# Summary of the method: as §1
binder,measurement,setting,value
B1,glycan array binding signal (z-score),[1],-0.087
same,glycan array binding signal (z-score),[2],-0.717
same,glycan array binding signal (z-score),[3],-1.32
same,glycan array binding signal (z-score),[4],-0.176
same,glycan array binding signal (z-score),[5],-1
same,glycan array binding signal (z-score),[6],-0.677
same,glycan array binding signal (z-score),[7],-0.28
same,glycan array binding signal (z-score),[8],-0.563
same,glycan array binding signal (z-score),[9],-0.13
same,glycan array binding signal (z-score),[10],-0.687
same,glycan array binding signal (z-score),[11],3.6
same,glycan array binding signal (z-score),[12],-0.308
same,glycan array binding signal (z-score),[13],0.893
same,glycan array binding signal (z-score),[14],-0.47
same,glycan array binding signal (z-score),[15],-0.102
same,glycan array binding signal (z-score),[16],-0.237
same,glycan array binding signal (z-score),[17],0.531
same,glycan array binding signal (z-score),[18],0.905
same,glycan array binding signal (z-score),[19],0.051
same,glycan array binding signal (z-score),[20],-0.676
same,glycan array binding signal (z-score),[21],-1.01
same,glycan array binding signal (z-score),[22],0.44
same,glycan array binding signal (z-score),[23],0.518
same,glycan array binding signal (z-score),[24],-1.12
same,glycan array binding signal (z-score),[25],0.182
same,glycan array binding signal (z-score),[26],0.488
same,glycan array binding signal (z-score),[27],-0.162
same,glycan array binding signal (z-score),[28],-0.42
same,glycan array binding signal (z-score),[29],0.177
same,glycan array binding signal (z-score),[30],0.007
same,glycan array binding signal (z-score),[31],0.067
same,glycan array binding signal (z-score),[32],0.449
same,glycan array binding signal (z-score),[33],0.808
same,glycan array binding signal (z-score),[34],0.822
same,glycan array binding signal (z-score),[35],1.42
same,glycan array binding signal (z-score),[36],0.332
same,glycan array binding signal (z-score),[37],-0.092
same,glycan array binding signal (z-score),[38],-0.78

# Rewritten with bars between the fields: part of the list above
binder | measurement | setting | value
B1 | glycan array binding signal (z-score) | [31] | 0.067
same | glycan array binding signal (z-score) | [32] | 0.449
